# The supplement of paper PMC8728848
# The other results are listed elsewhere or left out.
# B1: Pwp6 (Candida glabrata) (protein)
# chain: MGSSHHHHHHSSGLVPRGSHMASANLPKLTNICQIPDNVKKTSGFKGEIRRIGLFPPGGDYTYLLKFPSTGSTASDTISLTTKPQLSTSGWFPSLFGHTYFIKADLLVYMVAYFVPTETGEYTFKLVNSDDAAVMYVGNPSAFPCGSIDTWPEPRKEDINVCDKISASTKLYMEKGLAYPVRLVWYNGGGDGQFNAQFIDPSGTTHTDWNGYVWQYDACTDCDYK
# Legend:
# Test in all cases: glycan array binding signal (z-score within array); higher = stronger binding
# Conditions in all cases: glycan notation: IUPAC condensed, linker removed
# [1] = target: Gal(b1-4)GlcNAc(b1-3)Gal(b1-4)GlcNAc(b1-6)[Gal(b1-3)]GalNAc
# Procedure, shortened: (§1)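 Arrays were curated from the Consortium for Functional Glycomics database, 3228 in total, and kept only where the protein sequence was available. Binding is expressed as a within-array Z-score. This score was averaged across arrays of the same protein sequence at different concentrations or buffers and across linkers, and negative values can be read as non-binding.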
# [2] = target: Gal(b1-4)GlcNAc(b1-3)Gal(b1-4)[Fuc(a1-3)]GlcNAc(b1-3)Gal(b1-4)[Fuc(a1-3)]GlcNAc
# Procedure, shortened: as §1
# [3] = target: Gal(b1-4)GlcNAc(b1-3)GalNAc
# Procedure, shortened: as §1
# [4] = target: Gal(b1-4)GlcNAc(b1-3)[Fuc(a1-3)GlcNAc(b1-6)]Gal(b1-4)Glc
# Procedure, shortened: as §1
# [5] = target: Gal(b1-4)GlcNAc(b1-3)[Gal(b1-4)GlcNAc(b1-6)]Gal(b1-4)GlcNAc
# Procedure, shortened: as §1
# [6] = target: Gal(b1-4)GlcNAc(b1-3)[GlcNAc(b1-6)]Gal(b1-4)GlcNAc
# Procedure, shortened: as §1
# [7] = target: Gal(b1-4)GlcNAc(b1-6)Gal(b1-4)GlcNAc
# Procedure, shortened: as §1
# [8] = target: Gal(b1-4)GlcNAc(b1-6)GalNAc
# Procedure, shortened: as §1
# [9] = target: Gal(b1-4)GlcNAc(b1-6)[Gal(b1-3)]GalNAc
# Procedure, shortened: as §1
# [10] = target: Gal(b1-4)GlcNAc(b1-6)[Gal(b1-4)GlcNAc(b1-3)]GalNAc
# Procedure, shortened: as §1
# Gal(b1-4)GlcNAc6P = target: Gal(b1-4)GlcNAc6P
# Procedure, shortened: as §1
# Gal(b1-6)Gal = target: Gal(b1-6)Gal
# Procedure, shortened: as §1
# Gal3S(b1-3)GalNAc = target: Gal3S(b1-3)GalNAc
# Procedure, shortened: as §1
# Gal3S(b1-3)GlcNAc = target: Gal3S(b1-3)GlcNAc
# Procedure, shortened: as §1
# [11] = target: Gal3S(b1-3)[Fuc(a1-4)]GlcNAc
# Procedure, shortened: as §1
# Gal3S(b1-4)Glc = target: Gal3S(b1-4)Glc
# Procedure, shortened: as §1
# Gal3S(b1-4)Glc6S = target: Gal3S(b1-4)Glc6S
# Procedure, shortened: as §1
# Gal3S(b1-4)GlcNAc = target: Gal3S(b1-4)GlcNAc
# Procedure, shortened: as §1
# [12] = target: Gal3S(b1-4)[Fuc(a1-3)]Glc6S
# Procedure, shortened: as §1
# [13] = target: Gal3S(b1-4)[Fuc(a1-3)]GlcNAc
# Procedure, shortened: as §1
# [14] = target: Gal3S(b1-4)[Fuc(a1-3)]GlcNAc6S
# Procedure, shortened: as §1
# Gal3S4S(b1-4)GlcNAc = target: Gal3S4S(b1-4)GlcNAc
# Procedure, shortened: as §1
# Gal3S6S(b1-4)GlcNAc = target: Gal3S6S(b1-4)GlcNAc
# Procedure, shortened: as §1
# Gal3S6S(b1-4)GlcNAc6S = target: Gal3S6S(b1-4)GlcNAc6S
# Procedure, shortened: as §1
# Gal4S(b1-4)GlcNAc = target: Gal4S(b1-4)GlcNAc
# Procedure, shortened: as §1
# Gal4S6S(b1-4)GlcNAc = target: Gal4S6S(b1-4)GlcNAc
# Procedure, shortened: as §1
# Gal6P(b1-4)GlcNAc = target: Gal6P(b1-4)GlcNAc
# Procedure, shortened: as §1
# Gal6S(b1-3)GlcNAc = target: Gal6S(b1-3)GlcNAc
# Procedure, shortened: as §1
# Gal6S(b1-3)GlcNAc6S = target: Gal6S(b1-3)GlcNAc6S
# Procedure, shortened: as §1
# Gal6S(b1-4)Glc = target: Gal6S(b1-4)Glc
# Procedure, shortened: as §1
# Gal6S(b1-4)Glc6S = target: Gal6S(b1-4)Glc6S
# Procedure, shortened: as §1
# Gal6S(b1-4)GlcNAc = target: Gal6S(b1-4)GlcNAc
# Procedure, shortened: as §1
# Gal6S(b1-4)GlcNAc6S = target: Gal6S(b1-4)GlcNAc6S
# Procedure, shortened: as §1
# GalNAc(a1-3)Gal = target: GalNAc(a1-3)Gal
# Procedure, shortened: as §1
# GalNAc(a1-3)GalNAc = target: GalNAc(a1-3)GalNAc
# Procedure, shortened: as §1
# [15] = target: GalNAc(a1-3)GalNAc(b1-3)Gal(a1-4)Gal(b1-4)Glc
# Procedure, shortened: as §1
# [16] = target: GalNAc(a1-3)GalNAc(b1-3)Gal(a1-4)Gal(b1-4)GlcNAc
# Procedure, shortened: as §1
# GalNAc(b1-3)Gal = target: GalNAc(b1-3)Gal
# Procedure, shortened: as §1
# [17] = target: GalNAc(b1-3)Gal(a1-4)Gal(b1-4)GlcNAc
# Procedure, shortened: as §1
# [18] = target: GalNAc(b1-3)Gal(a1-4)Gal(b1-4)GlcNAc(b1-3)Gal(b1-4)Glc
# Procedure, shortened: as §1
# [19] = target: GalNAc(b1-3)Gal(a1-6)Gal(b1-4)Glc
# Procedure, shortened: as §1
# GalNAc(b1-3)GalNAc = target: GalNAc(b1-3)GalNAc
# Procedure, shortened: as §1
# GalNAc(b1-3)GlcNAc = target: GalNAc(b1-3)GlcNAc
# Procedure, shortened: as §1
# GalNAc(b1-4)Gal(b1-4)Glc = target: GalNAc(b1-4)Gal(b1-4)Glc
# Procedure, shortened: as §1
# GalNAc(b1-4)GlcNAc = target: GalNAc(b1-4)GlcNAc
# Procedure, shortened: as §1
binder,measurement,setting,value
B1,glycan array binding signal (z-score),[1],0.411
same,glycan array binding signal (z-score),[2],-0.086
same,glycan array binding signal (z-score),[3],-0.64
same,glycan array binding signal (z-score),[4],0.224
same,glycan array binding signal (z-score),[5],-0.273
same,glycan array binding signal (z-score),[6],0.257
same,glycan array binding signal (z-score),[7],-0.793
same,glycan array binding signal (z-score),[8],-0.613
same,glycan array binding signal (z-score),[9],0.345
same,glycan array binding signal (z-score),[10],-0.551
same,glycan array binding signal (z-score),Gal(b1-4)GlcNAc6P,-0.186
same,glycan array binding signal (z-score),Gal(b1-6)Gal,-0.187
same,glycan array binding signal (z-score),Gal3S(b1-3)GalNAc,-0.791
same,glycan array binding signal (z-score),Gal3S(b1-3)GlcNAc,-0.817
same,glycan array binding signal (z-score),[11],-0.067
same,glycan array binding signal (z-score),Gal3S(b1-4)Glc,-0.252
same,glycan array binding signal (z-score),Gal3S(b1-4)Glc6S,-0.421
same,glycan array binding signal (z-score),Gal3S(b1-4)GlcNAc,-0.435
same,glycan array binding signal (z-score),[12],0.112
same,glycan array binding signal (z-score),[13],-0.708
same,glycan array binding signal (z-score),[14],-0.311
same,glycan array binding signal (z-score),Gal3S4S(b1-4)GlcNAc,-0.287
same,glycan array binding signal (z-score),Gal3S6S(b1-4)GlcNAc,-0.372
same,glycan array binding signal (z-score),Gal3S6S(b1-4)GlcNAc6S,-0.287
same,glycan array binding signal (z-score),Gal4S(b1-4)GlcNAc,-0.746
same,glycan array binding signal (z-score),Gal4S6S(b1-4)GlcNAc,-0.534
same,glycan array binding signal (z-score),Gal6P(b1-4)GlcNAc,-0.54
same,glycan array binding signal (z-score),Gal6S(b1-3)GlcNAc,-0.677
same,glycan array binding signal (z-score),Gal6S(b1-3)GlcNAc6S,-0.712
same,glycan array binding signal (z-score),Gal6S(b1-4)Glc,-0.624
same,glycan array binding signal (z-score),Gal6S(b1-4)Glc6S,-0.337
same,glycan array binding signal (z-score),Gal6S(b1-4)GlcNAc,-0.604
same,glycan array binding signal (z-score),Gal6S(b1-4)GlcNAc6S,-0.642
same,glycan array binding signal (z-score),GalNAc(a1-3)Gal,-0.686
same,glycan array binding signal (z-score),GalNAc(a1-3)GalNAc,-0.809
same,glycan array binding signal (z-score),[15],-0.294
same,glycan array binding signal (z-score),[16],0.224
same,glycan array binding signal (z-score),GalNAc(b1-3)Gal,-0.741
same,glycan array binding signal (z-score),[17],-0.705
same,glycan array binding signal (z-score),[18],0.152
same,glycan array binding signal (z-score),[19],-0.563
same,glycan array binding signal (z-score),GalNAc(b1-3)GalNAc,-0.574
same,glycan array binding signal (z-score),GalNAc(b1-3)GlcNAc,-0.654
same,glycan array binding signal (z-score),GalNAc(b1-4)Gal(b1-4)Glc,-0.167
same,glycan array binding signal (z-score),GalNAc(b1-4)GlcNAc,-0.462

# Part of the list above, bar-delimited.
binder | measurement | setting | value
B1 | glycan array binding signal (z-score) | [2] | -0.086
same | glycan array binding signal (z-score) | [8] | -0.613
